The results in this text go back to US20100204461.

For at least one entry, the source does not settle the construct or the ends of the probe.

The data set has as its system alpha-thrombin. The data set can be described thus: binding assay. Conditions: internal hexaethylene glycol spacer between the two parts; anchor 5' NH2-(CH2)6; fluorescence with 10-fold alpha-thrombin; Tris pH 8.0, 5 mM MgCl2, 10 mM KCl or LiCl; equilibrium reached much faster in LiCl; HEG linker improves performance vs TAL2; purified native protein; label: 5' Cy3 on TAL1, 3' Dabcyl on anchor; folded or branched DNA; variant of TAL2 beacon with Dabcyl anchor.

Consider “GGTTGGTTTGGTTGGCAACCTCTGCTACGTG / CACGTAGCAG [TAL1 beacon (HEG spacer) with Dabcyl anchor]”, for which the binding result was “binds”.
